Assay results taken from article PMC9732051, “Divergent self-association properties of paralogous proteins TRIM2 and TRIM3 regulate their E3 ligase activity” (Nature Communications, 2022).
No constants are given. Whether binding was seen depends on the method and setting. In cells and extracts the contact can be indirect. Sequences can lack the tags named with a protein.

Assays:
[1] = target: T1, TRIM3-FLAG full length (human) (UniProt O75382); assay: co-IP; EGFP-TRIM2 and FLAG-TRIM3 constructs overexpressed in HEK293T; IP with anti-GFP and Protein A/G beads or with FLAG M2 beads; 0.5% IGEPAL, 150 mM NaCl, 50 mM Tris-HCl pH 7.5, 5 mM MgCl2; for truncation mutants cells treated with 10 μM MG132 6 h
T1 sequence: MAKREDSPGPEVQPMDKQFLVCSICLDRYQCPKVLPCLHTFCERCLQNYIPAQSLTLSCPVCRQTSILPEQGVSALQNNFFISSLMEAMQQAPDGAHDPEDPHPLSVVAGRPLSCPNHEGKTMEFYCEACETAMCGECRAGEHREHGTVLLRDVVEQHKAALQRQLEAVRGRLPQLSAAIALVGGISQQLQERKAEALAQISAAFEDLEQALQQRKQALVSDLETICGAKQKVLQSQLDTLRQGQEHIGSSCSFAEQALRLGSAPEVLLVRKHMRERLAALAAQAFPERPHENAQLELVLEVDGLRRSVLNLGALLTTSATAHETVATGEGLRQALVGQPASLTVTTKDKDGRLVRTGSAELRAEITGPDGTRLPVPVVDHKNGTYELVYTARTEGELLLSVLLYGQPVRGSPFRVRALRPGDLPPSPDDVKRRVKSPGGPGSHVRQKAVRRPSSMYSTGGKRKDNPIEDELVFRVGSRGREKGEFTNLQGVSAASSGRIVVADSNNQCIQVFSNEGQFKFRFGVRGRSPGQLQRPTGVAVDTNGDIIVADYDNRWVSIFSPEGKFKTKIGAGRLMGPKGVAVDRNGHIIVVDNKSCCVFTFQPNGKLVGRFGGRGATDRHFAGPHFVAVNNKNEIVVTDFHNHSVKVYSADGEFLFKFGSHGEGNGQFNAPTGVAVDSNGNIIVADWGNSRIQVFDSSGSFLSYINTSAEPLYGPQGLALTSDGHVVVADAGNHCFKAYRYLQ

[2] = target: T2, EGFP-TRIM2 full length (human) (UniProt Q9C040); assay: as above
T2 sequence: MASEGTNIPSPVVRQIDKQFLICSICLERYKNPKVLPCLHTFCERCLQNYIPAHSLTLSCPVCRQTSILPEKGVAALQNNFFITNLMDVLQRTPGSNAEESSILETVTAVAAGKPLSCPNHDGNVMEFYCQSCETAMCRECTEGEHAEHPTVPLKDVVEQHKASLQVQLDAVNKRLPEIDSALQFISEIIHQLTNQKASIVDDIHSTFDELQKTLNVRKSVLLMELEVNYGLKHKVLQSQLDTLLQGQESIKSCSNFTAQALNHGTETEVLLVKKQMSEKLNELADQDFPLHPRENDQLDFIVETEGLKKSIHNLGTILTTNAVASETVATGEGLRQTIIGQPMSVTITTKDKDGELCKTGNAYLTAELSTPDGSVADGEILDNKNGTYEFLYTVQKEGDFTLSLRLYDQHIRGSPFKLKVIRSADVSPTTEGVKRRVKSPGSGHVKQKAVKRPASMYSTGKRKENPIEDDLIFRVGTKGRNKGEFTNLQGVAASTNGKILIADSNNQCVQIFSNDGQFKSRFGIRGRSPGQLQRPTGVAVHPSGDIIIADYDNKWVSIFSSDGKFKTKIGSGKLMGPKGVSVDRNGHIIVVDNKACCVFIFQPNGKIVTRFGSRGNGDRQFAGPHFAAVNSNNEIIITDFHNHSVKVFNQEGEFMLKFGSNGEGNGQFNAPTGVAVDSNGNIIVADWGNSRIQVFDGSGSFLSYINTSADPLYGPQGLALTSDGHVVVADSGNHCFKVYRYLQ

EGFP-TRIM2 truncation mutant without the filamin domain (human) (domain or fragment)
binding [1]: no binding

FLAG-TRIM3 truncation mutant without the coiled-coil domain (human) (domain or fragment)
binding [2]: no binding
